# About 260 (12%) of roughly 2,100 compounds were called active. The shares of active, inactive and inconclusive entries below differ from those in the screen. Calls follow the shape of the dose curve; as a rule, active = well fitted cell-killing curve with a large enough effect; inconclusive = small, poorly fitted or top-dose-only effect, or effect the other way; inactive = flat fitted curve, though single readings scatter. Potencies beside an inconclusive call are fits to weak or partial responses and may not hold up.
# Assay: Viability Counterscreen for Confirmatory qHTS for Inhibitors of ATXN expression; also: nearly all actives have a fitted effect of over 50% in size
# Conditions: HEK-293 ATXN2-luc cells viability, CellTiter-Fluor, 24 h
# Summary of the method: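 Luminescence read-out (SteadyGlo, 5 min) followed a 30 min Gly-Phe-AFC (25 uM final) viability fluorescence read. ATXN2-luciferase reporter cells were exposed 24 h to a dilution series. Medium-only wells served as the 100% inhibition reference.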
# Potency is read from the fitted curve at half-maximal effect.
row,Structure (SMILES),Potency
1,O=[N+]([O-])c1ccc(/C=N/N=C/c2ccc([N+](=O)[O-])o2)o1,active: 7.94 µM
2,COc1ccc(Cc2nnc(N/N=C/c3ccccc3O)[nH]c2=O)cc1OC,active: 4.47 µM
3,Oc1cccc(C(Nc2nccs2)c2ccc3cccnc3c2O)c1 (stereo unspecified),"inconclusive: 8.91 µM [cytotoxic, partial curve]"
4,COc1cc([C@@H]2c3cc4c(cc3[C@@H](O[C@@H]3O[C@@H]5CO[C@@H](C)O[C@H]5[C@H](O)[C@H]3O)[C@H]3COC(=O)[C@H]23)OCO4)cc(OC)c1O,"inconclusive: 2.51 µM [cytotoxic, partial curve]"
5,O=C(Nc1nc(-c2ccccn2)cs1)c1cc(Cl)ccc1[N+](=O)[O-],"inconclusive: 3.98 µM [cytotoxic, full curve]"
6,Cc1ccc(OCCn2cc(/C=N/NC(=O)c3ccncc3)c3ccccc32)cc1,"inconclusive: 39.8 µM [cytotoxic, single point]"
7,Cc1ccc(/C=N/Nc2ccnc3cc(Cl)ccc23)c(C)c1,"inconclusive: 39.8 µM [cytotoxic, single point]"
8,Cc1cnc(C(=O)NNC(=O)c2ccc(Br)cc2)cn1,"inconclusive: 39.8 µM [cytotoxic, single point]"
9,Cn1c(=O)c2cc(NC(=O)Nc3cccnc3)ccc2n1Cc1ccc(Cl)cc1,inactive
10,Cn1c2c(c(=O)n(C)c1=O)C(C(F)(F)F)(C(F)(F)F)N=C(CCC1CCCCC1)N2,active: 20 µM
11,CCc1noc(C)c1C(=O)N1CCSC1=Nc1cccc(Cl)c1C,inactive
12,CCOC(=O)c1cnc(-n2nc(C)cc2C)nc1NC1CCCC1,inactive
13,Cc1nc2ccc(NC(=O)c3ccc(S(=O)(=O)N(C)c4ccccc4)cc3)cc2s1,"inconclusive: 3.16 µM [cytotoxic, partial curve]"
14,O=C(CCC(=O)Nc1ccc(Br)cc1)N/N=C/c1ccccc1O,inactive
15,CCc1nc2c(OCCC3CCCCC3)cccn2c1N(C=O)Cc1ccc(OC)cc1,"inconclusive: 39.8 µM [cytotoxic, single point]"
16,O=C(Nc1nc(-c2ccc(F)c(F)c2)cs1)Nc1ccc(F)cc1F,active: 2.82 µM
17,CC1=CC(C)(C)Nc2ccc(OC(=O)CN3C(=O)C4CCCCC4C3=O)cc21 (stereo unspecified),"inconclusive: 39.8 µM [cytotoxic, single point]"
18,CCCC(=O)Nc1c(C(=O)OCC)[nH]c2ccccc12,inactive
19,CCCCC(=O)NC(c1ccccc1OC)c1ccc2cccnc2c1O (stereo unspecified),"inconclusive: 10 µM [cytotoxic, partial curve]"
20,CC1(C)c2[nH]c3ccccc3c2C[C@H]2C(=O)N(Cc3ccccc3F)C(=O)N21,"inconclusive: 39.8 µM [cytotoxic, single point]"
21,NC(Cc1ccccc1)c1csc(Nc2nccc(C(F)(F)F)n2)n1 (stereo unspecified),active: 14.1 µM
22,CCOC(=O)Oc1c(OC)cc(C(=O)O[C@@H]2C[C@@H]3CN4CCc5c([nH]c6cc(OC)ccc56)[C@H]4C[C@@H]3[C@H](C(=O)OC)[C@H]2OC)cc1OC,inactive

row,Structure (SMILES),Potency
1,Cc1ccc(-c2nc3ccc(Cl)cn3c2CC(C)(C)C)cc1,inactive
2,COc1cc(C(=O)N/N=C(\Cc2ncc[nH]2)c2ccccc2)cc(OC)c1OC,inactive
3,Cc1ccc(-c2nnc(N3CCC(C)CC3)c3ccccc23)cc1C,inactive
4,O=C(c1ccc(CS(=O)Cc2ccccc2Cl)o1)N1CCN(c2cccc(Cl)c2)CC1 (stereo unspecified),"inconclusive: 35.5 µM [cytotoxic, single point]"
5,CC1(C)CCN2CCC(C)(C)c3c(O)ccc1c32,"inconclusive: 3.16 µM [cytotoxic, single point]"
6,COc1cccc(CNc2nc3cc(-c4ccccc4)sc3c(=O)n2C)c1OC,"inconclusive: 31.6 µM [cytotoxic, partial curve]"
7,COc1ccc(NC(=S)N(CCCN2CCOCC2)Cc2cn(C)c3ccccc23)cc1,"inconclusive: 25.1 µM [cytotoxic, partial curve, poor fit]"
8,Oc1c(C(Nc2cccc(C(F)(F)F)c2)c2ccncc2)ccc2cccnc12 (stereo unspecified),"inconclusive: 10 µM [cytotoxic, partial curve]"
9,O=C(N/N=C/c1ccc(O)cc1O)c1ccc(NC(=O)C2CCCCC2)cc1,"inconclusive: 15.8 µM [cytotoxic, partial curve]"
10,CCc1nc2ccc(C(=O)Nc3cccc(NS(C)(=O)=O)c3)cn2c1N(CC)Cc1cccc(Br)c1,"inconclusive: 31.6 µM [cytotoxic, single point]"
11,Cc1ccc(S(=O)(=O)Nc2cc(Cl)c(O)c3ncccc23)cc1,active: 10 µM
12,COc1ccc(OC)c(C(=O)/C=C/c2ccccc2C(F)(F)F)c1,inactive
13,OC(c1ccccc1)(c1nc(/C=C/c2ccc(C(F)(F)F)cc2)cs1)C(F)(F)F (stereo unspecified),"inconclusive: 39.8 µM [cytotoxic, single point]"
14,COc1ccccc1N(CC(=O)N/N=C(\C)c1ccccc1O)S(=O)(=O)c1ccc(C)cc1,"inconclusive: 28.2 µM [cytotoxic, single point]"
15,COc1cccc(Nc2nc(C(N)Cc3ccc(F)cc3)cs2)n1 (stereo unspecified),"inconclusive: 28.2 µM [cytotoxic, single point]"
16,O=C(N/N=C\c1c(O)ccc2ccccc12)c1cncc(Br)c1,"inconclusive: 7.08 µM [rising, single point]"
17,CCN(CC(=O)Nc1cccc(OC)c1)CC(=O)Nc1ccc(Br)c(C)c1,"inconclusive: 39.8 µM [cytotoxic, single point]"
18,CCn1cc(CN2CCC(C(=O)Nc3cccc(-c4cccc(Cl)c4)c3)CC2)c(C)n1,"inconclusive: 25.1 µM [cytotoxic, partial curve, poor fit]"
19,Cc1c(N=C2C=CC(=O)c3ccccc32)c(=O)n(-c2ccccc2)n1C,active: 28.2 µM
20,Cc1cc(Br)c(OCc2ccc(C(=O)N/N=C3\CC4CC=CC34)cc2)c(Br)c1 (stereo unspecified),"inconclusive: 39.8 µM [cytotoxic, single point]"
21,O=C(N/N=C/c1cc(Br)cc([N+](=O)[O-])c1O)c1ccc(NC(=O)c2ccc(F)cc2)cc1,"inconclusive: 3.55 µM [cytotoxic, partial curve, poor fit]"
22,O=C(N/N=C/c1ccc([N+](=O)[O-])s1)c1ccccc1,"inconclusive: 22.4 µM [cytotoxic, partial curve, poor fit]"

# Four compounds already listed, ordered by length of the SMILES, low to high:
row,Structure (SMILES),Potency
3,Cc1ccc(-c2nnc(N3CCC(C)CC3)c3ccccc23)cc1C,inactive
12,COc1ccc(OC)c(C(=O)/C=C/c2ccccc2C(F)(F)F)c1,inactive
8,Oc1c(C(Nc2cccc(C(F)(F)F)c2)c2ccncc2)ccc2cccnc12 (stereo unspecified),"inconclusive: 10 µM [cytotoxic, partial curve]"
10,CCc1nc2ccc(C(=O)Nc3cccc(NS(C)(=O)=O)c3)cn2c1N(CC)Cc1cccc(Br)c1,"inconclusive: 31.6 µM [cytotoxic, single point]"

# Next part

row,Structure (SMILES),Potency
1,CC(=O)c1cccc(-c2ccnc3c2CC(C(=O)Nc2ccc(F)c(Cl)c2)O3)c1 (stereo unspecified),inactive
2,C[n+]1c2n(c3ccccc31)N=C(c1ccccc1)CS2,"inconclusive: 31.6 µM [cytotoxic, single point]"
3,C=CCc1cccc(CNc2nc3ccccc3n2C(C)C)c1O,"inconclusive: 35.5 µM [cytotoxic, single point]"
4,C=CS(=O)(=O)c1c2cc(OC)ccc2nc2ccc(OC)cc12,"inconclusive: 15.8 µM [rising, single point]"
5,CCc1cc(-c2nnn(CCC3COCCO3)c2CC)ccc1-c1cn(CCc2c[nH]c3ccccc23)nn1 (stereo unspecified),"inconclusive: 20 µM [cytotoxic, single point]"
6,O=C(Nc1cccc(-c2cccc(Cl)c2)c1)C1CCN(C2CCC2)CC1,"inconclusive: 35.5 µM [cytotoxic, single point]"
7,CC(=O)NC(c1ccc(C)cc1)c1cc(Cl)c2cccnc2c1O (stereo unspecified),active: 11.2 µM
8,O=C1N(c2ccccc2)C[C@@H]2C[C@@H](c3cc4ccccc4o3)N3CCC[C@@]123,"inconclusive: 0.251 µM [cytotoxic, full curve]"
9,COc1cccc(-c2nn(C)c3sc(C(=O)NCCCN(C)Cc4ccccc4)cc23)c1,"inconclusive: 31.6 µM [cytotoxic, partial curve]"
10,CCOc1ccc2[nH]c3c(NCCC(C)C)ncnc3c2c1,"inconclusive: 28.2 µM [cytotoxic, single point]"
11,Cc1ccc(C(=O)NNC(=O)CCCN2C(=O)/C(=C/c3ccccc3Cl)SC2=S)cc1,"inconclusive: 39.8 µM [cytotoxic, partial curve, poor fit]"
12,Cn1c(CCc2nc3ccccc3[nH]2)nnc1SCC#N,inactive
13,CCc1ccc(NC(=O)C2CCN(S(=O)(=O)c3ccc4c(c3)CC(C)N4C(C)=O)CC2)cc1 (stereo unspecified),inactive
14,COc1ccc(-c2cc(NC=O)c3ncc(-c4cccc(C(=O)NCCN(C)C)c4)n3c2)cc1,inactive
15,COc1ccc(/C=C2\SC(=S)N(CCCC(=O)NNC(=O)c3ccccc3O)C2=O)cc1,"inconclusive: 28.2 µM [cytotoxic, single point]"
16,Cc1cc(C)cc(OCC(=O)NNC(=S)NC(=O)C2CC2)c1,inactive
17,CN(C)CCNCCCNc1c2ccccc2nc2cccc([N+](=O)[O-])c12,"inconclusive: 0.355 µM [cytotoxic, full curve, poor fit]"
18,O=C(CNC(=O)c1ccccc1F)N/N=C/c1cc(Br)ccc1OC(=O)/C=C/c1ccco1,"inconclusive: 14.1 µM [cytotoxic, partial curve, poor fit]"
19,Oc1ccc(N2CCN(c3ccnc4cc(Cl)ccc34)CC2)cc1,"inconclusive: 15.8 µM [cytotoxic, partial curve]"
20,C/C(=N\NC(=O)c1cc(C2CC2)nc2ccccc12)c1ccc(O)cc1O,"inconclusive: 10 µM [cytotoxic, partial curve]"
21,O=[N+]([O-])c1ccc2[nH]cc(S(=O)(=O)N3CCN(c4cccc(Cl)c4)CC3)c2c1,"inconclusive: 39.8 µM [cytotoxic, single point]"
22,O=C(N/N=C/c1ccccc1O)c1cccc(C(F)(F)F)c1,inactive

# Reference: PubChem BioAssay AID1745850 (National Center for Advancing Translational Sciences (NCATS), 2022)
